Positions count from the first letter of the chain named. In names and notes the source's numbering stands. Results are given in words; binding and its absence hold for the method and conditions named. In cells and extracts the contact can be indirect. Some entries that bind do so weakly or less than the wild type. Tags and fused reporters may be left off the sequences shown.
T1: Mer receptor tyrosine kinase, full length (UniProt Q60805)
T1 sequence: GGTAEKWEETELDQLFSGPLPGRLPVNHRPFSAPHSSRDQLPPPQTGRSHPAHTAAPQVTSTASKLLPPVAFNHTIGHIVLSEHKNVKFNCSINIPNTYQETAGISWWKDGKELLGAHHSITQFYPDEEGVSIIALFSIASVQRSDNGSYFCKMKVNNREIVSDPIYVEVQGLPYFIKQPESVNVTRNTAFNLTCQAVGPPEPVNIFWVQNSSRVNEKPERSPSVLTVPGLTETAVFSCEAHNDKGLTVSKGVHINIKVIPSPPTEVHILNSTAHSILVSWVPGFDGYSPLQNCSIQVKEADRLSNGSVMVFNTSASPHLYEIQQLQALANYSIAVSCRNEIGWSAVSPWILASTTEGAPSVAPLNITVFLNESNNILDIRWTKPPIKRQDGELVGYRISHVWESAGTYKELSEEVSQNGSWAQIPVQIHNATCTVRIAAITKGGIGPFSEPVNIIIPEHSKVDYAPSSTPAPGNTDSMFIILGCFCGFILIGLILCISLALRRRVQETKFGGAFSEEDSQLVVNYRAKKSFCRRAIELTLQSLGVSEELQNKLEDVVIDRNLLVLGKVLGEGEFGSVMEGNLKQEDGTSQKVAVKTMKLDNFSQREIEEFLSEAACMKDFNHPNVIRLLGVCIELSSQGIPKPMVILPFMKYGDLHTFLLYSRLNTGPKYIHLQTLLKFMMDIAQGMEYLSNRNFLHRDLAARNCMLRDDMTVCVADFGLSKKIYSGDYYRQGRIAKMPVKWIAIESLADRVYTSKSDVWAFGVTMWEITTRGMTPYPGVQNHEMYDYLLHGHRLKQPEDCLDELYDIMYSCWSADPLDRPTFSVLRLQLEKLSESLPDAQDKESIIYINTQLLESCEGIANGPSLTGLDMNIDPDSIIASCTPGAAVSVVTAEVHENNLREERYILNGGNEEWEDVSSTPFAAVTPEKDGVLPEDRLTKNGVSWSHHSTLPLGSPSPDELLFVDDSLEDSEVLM

B1: Flag-tagged full-length Ack1 Y859F (enzyme, UniProt Q07912 1-1038)
chain: MQPEEGTGWLLELLSEVQLQQYFLRLRDDLNVTRLSHFEYVKNEDLEKIGMGRPGQRRLWEAVKRRKALCKRKSWMSKVFSGKRLEAEFPPHHSQSTFRKTSPAPGGPAGEGPLQSLTCLIGEKDLRLLEKLGDGSFGVVRRGEWDAPSGKTVSVAVKCLKPDVLSQPEAMDDFIREVNAMHSLDHRNLIRLYGVVLTPPMKMVTELAPLGSLLDRLRKHQGHFLLGTLSRYAVQVAEGMGYLESKRFIHRDLAARNLLLATRDLVKIGDFGLMRALPQNDDHYVMQEHRKVPFAWCAPESLKTRTFSHASDTWMFGVTLWEMFTYGQEPWIGLNGSQILHKIDKEGERLPRPEDCPQDIYNVMVQCWAHKPEDRPTFVALRDFLLEAQPTDMRALQDFEEPDKLHIQMNDVITVIEGRAENYWWRGQNTRTLCVGPFPRNVVTSVAGLSAQDISQPLQNSFIHTGHGDSDPRHCWGFPDRIDELYLGNPMDPPDLLSVELSTSRPPQHLGGVKKPTYDPVSEDQDPLSSDFKRLGLRKPGLPRGLWLAKPSARVPGTKASRGSGAEVTLIDFGEEPVVPALRPCAPSLAQLAMDACSLLDETPPQSPTRALPRPLHPTPVVDWDARPLPPPPAYDDVAQDEDDFEICSINSTLVGAGVPAGPSQGQTNYAFVPEQARPPPPLEDNLFLPPQGGGKPPSSAQTAEIFQALQQECMRQLQAPAGSPAPSPSPGGDDKPQVPPRVPIPPRPTRPHVQLSPAPPGEEETSQWPGPASPPRVPPREPLSPQGSRTPSPLVPPGSSPLPPRLSSSPGKTMPTTQSFASDPKYATPQVIQAPGPRAGPCILPIVRDGKKVSSTHFYLLPERPSYLERYQRFLREAQSPEEPTPLPVPLLLPPPSTPAPAAPTATVRPMPQAALDPKANFSTNNSNPGARPPPPRATARLPQRGCPGDGPEAGRPADKIQMAMVHGVTTEECQAALQCHGWSVQRAAQYLKVEQLFGLGLRPRGECHKVLEMFDWNLEQAGCHLLGSWGPAHHKR
B2: Flag-tagged full-length Ack1 Y860F (enzyme, UniProt Q07912 1-1038)
chain: B1 chain with F859Y, Y860F
B3: Flag-tagged full-length Ack1 Y859F/Y860F (enzyme, UniProt Q07912 1-1038)
chain: B1 chain with Y860F

Molecular target: T1, Mer receptor tyrosine kinase, full length
Assay: co-IP; HEK293T lysates (0.8 mg) with 1.4 ug anti-Mer antibody (ab184086) and Protein A-agarose at 4 C overnight; anti-Flag Western blot; cells unstimulated or stimulated with 120 ng/mL Gas6 for 15 min

| binding | Binder |
| --- | --- |
| binds | B1 |
| binds | B2 |
| binds | B3 |
